Data as given in PMC6763497, “Argonaute bypasses cellular obstacles without hindrance during target search”.
For at least one entry, the source does not settle the construct or the ends of the probe. At least one verdict was read from the data and is not stated in words by the source. Where a protein sequence is shown, tags need not be part of it.

Biological target: T1, Lin28b (UniProt Q6ZN17)
T1 sequence (looked up, limits assumed): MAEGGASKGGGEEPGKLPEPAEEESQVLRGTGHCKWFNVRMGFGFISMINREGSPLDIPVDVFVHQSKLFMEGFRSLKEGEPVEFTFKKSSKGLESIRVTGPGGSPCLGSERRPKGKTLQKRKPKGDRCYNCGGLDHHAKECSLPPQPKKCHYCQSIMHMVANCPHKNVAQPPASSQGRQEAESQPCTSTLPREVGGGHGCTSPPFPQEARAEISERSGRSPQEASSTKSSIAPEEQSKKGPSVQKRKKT
Experiment: single-molecule immobilization
Details: DNA held on surface via His-Lin28b and biotin-anti-His antibody; amino-C6-dT; 50 mM Tris-HCl pH 8.0, 100 mM NaCl (10-200 mM in salt series); temperature not given; TIRF smFRET, 100 ms; recombinant protein; protein details: His (pET28-a); label: Cy5; folded or branched DNA

“TTTTTTTTTTTTTTTTTTTACTACCTCTTTTTTTTTTTTTTTTTTTTGCGCTATGCGGTTGTATAGTTTTAGGGTCACACCCACCACTGGGAGATAACTATACAATCGCATAGCGCTTTTTTTTTTTTTTTTTTTTTTTTTTTTTTTTTACTACCTCTTTTTTTTTTTTTTTTT [Lin28 double target]”: binds.
